Experimental data published in US5084481A, “Method of treating inflammatory diseases with pharmaceutical composition containing dihydrolipoic acid as active substance” (Asta Pharma Aktiengesellschaft, priority 1989, dated 1992).
At least one structure is not confirmed: it was looked up by name or label, or the drawing left a doubt.

Assay: Comparison of the effect with alpha-lipoic acid and S-adenosyl-L-methionine (animal experiments)
Format: in vivo
Conditions: comparison substance

C[S+](CC[C@H](N)C(=O)[O-])C[C@H]1O[C@@H](n2cnc3c(N)ncnc32)[C@H](O)[C@@H]1O (stereo partly drawn) [S-adenoxyl-L-methionine, S-adenosyl-L-methionine, reference compound]
appearance of the full effect (in words): after repeated administration
